Results are given in words; binding and its absence hold for the method and conditions named. Some binding calls cover weakened binding; strength is not graded here. Sequences can lack the tags named with a protein. One block for each molecule: values may come before it.
Tests used:
[1] = molecular target: T1, GFP–Rad55–Rad57 complex (His6–GFP–Rad55 and FLAG–Rad57) (S. cerevisiae) (UniProt P38953+P25301); assay: pull-down
T1 sequence 1: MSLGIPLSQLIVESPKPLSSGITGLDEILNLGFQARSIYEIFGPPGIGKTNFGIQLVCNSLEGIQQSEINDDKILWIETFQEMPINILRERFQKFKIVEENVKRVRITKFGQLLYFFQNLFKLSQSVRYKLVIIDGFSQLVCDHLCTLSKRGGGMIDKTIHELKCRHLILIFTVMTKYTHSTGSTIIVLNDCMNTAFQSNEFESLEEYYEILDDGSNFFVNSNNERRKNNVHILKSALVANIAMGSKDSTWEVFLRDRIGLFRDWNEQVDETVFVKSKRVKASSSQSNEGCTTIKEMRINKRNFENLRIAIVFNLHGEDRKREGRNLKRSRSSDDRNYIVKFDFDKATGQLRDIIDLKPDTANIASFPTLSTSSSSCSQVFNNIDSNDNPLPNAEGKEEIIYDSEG
T1 sequence 2: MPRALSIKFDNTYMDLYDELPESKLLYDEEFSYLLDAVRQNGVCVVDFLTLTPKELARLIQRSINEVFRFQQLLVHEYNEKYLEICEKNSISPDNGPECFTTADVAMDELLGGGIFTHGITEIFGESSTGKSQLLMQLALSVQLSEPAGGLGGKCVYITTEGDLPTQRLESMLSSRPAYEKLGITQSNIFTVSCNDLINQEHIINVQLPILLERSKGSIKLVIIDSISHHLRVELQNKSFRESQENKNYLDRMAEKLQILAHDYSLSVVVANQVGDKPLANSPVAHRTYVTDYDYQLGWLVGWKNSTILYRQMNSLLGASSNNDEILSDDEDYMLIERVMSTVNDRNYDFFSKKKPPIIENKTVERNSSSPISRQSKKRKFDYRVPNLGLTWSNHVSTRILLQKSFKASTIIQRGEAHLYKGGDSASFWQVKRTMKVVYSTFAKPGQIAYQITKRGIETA

Chains of the proteins cited; added tags and fusions are not shown. Residues count along the entry.
UniProt P12954, residues 1-898: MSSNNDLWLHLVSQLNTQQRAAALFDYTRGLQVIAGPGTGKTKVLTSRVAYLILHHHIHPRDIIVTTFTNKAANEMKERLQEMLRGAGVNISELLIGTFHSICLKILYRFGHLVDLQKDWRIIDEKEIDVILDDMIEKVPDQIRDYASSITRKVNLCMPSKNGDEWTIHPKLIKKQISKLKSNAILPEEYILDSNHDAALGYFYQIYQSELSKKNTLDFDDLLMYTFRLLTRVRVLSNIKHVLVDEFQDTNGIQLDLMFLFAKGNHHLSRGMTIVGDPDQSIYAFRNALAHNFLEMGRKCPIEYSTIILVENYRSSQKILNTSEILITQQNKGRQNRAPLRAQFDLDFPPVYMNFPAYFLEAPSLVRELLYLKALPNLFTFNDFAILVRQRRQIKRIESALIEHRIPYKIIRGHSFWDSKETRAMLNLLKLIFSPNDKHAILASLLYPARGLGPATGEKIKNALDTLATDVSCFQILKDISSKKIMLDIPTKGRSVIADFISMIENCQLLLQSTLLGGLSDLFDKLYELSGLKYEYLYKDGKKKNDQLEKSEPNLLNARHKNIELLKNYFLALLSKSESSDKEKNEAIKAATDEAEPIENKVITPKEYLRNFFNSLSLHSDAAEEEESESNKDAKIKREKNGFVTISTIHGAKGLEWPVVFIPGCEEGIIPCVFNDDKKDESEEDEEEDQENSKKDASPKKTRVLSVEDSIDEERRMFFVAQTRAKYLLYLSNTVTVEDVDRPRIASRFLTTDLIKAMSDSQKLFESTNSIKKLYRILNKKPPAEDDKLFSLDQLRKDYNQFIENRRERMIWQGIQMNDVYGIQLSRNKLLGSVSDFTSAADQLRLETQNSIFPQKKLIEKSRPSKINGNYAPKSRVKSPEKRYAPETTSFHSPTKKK

[2] = molecular target: T2, His6–GFP–Rad55 (S. cerevisiae) (UniProt P38953); assay: co-purification
T2 sequence: T1 sequence 1

Dmc1 (S. cerevisiae) = molecular target: T3, Dmc1 (S. cerevisiae) (UniProt P25453); assay: single-molecule ssDNA curtain assay
T3 sequence: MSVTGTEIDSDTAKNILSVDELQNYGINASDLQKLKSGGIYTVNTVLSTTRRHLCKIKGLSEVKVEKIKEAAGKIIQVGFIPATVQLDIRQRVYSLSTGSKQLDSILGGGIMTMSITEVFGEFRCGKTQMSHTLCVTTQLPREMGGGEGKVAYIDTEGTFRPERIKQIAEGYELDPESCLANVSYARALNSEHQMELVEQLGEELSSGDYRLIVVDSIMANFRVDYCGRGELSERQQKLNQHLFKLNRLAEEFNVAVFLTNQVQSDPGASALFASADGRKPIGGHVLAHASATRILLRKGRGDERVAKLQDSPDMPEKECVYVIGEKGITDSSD

Rad51 = molecular target: T4, Rad51 (S. cerevisiae, UniProt P25454 1-400); assay: single-molecule ssDNA curtain assay
T4 sequence (looked up): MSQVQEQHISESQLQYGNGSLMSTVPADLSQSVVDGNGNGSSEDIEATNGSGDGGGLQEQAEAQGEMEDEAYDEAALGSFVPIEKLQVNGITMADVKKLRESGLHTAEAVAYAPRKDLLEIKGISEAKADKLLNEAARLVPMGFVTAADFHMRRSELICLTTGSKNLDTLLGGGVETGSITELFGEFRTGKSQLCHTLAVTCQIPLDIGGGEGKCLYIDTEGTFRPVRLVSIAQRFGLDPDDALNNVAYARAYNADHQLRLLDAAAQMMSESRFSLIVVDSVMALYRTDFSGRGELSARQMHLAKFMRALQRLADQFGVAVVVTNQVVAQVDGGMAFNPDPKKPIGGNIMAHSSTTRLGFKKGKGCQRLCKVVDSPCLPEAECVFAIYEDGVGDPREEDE

binding [1]: binds
Molecule: GFP–Srs2(1–898) (from UniProt P12954 1-898) (domain or fragment)

binding [2]: binds
B1: FLAG–Rad57 (protein, UniProt P25301 1-460)
chain: T1 sequence 2

binding (Dmc1 (S. cerevisiae)): no binding (tested: 60 nM)
binding (Rad51): binds
B2: GFP–Rad55–Rad57 complex (His6–GFP–Rad55 and FLAG–Rad57) (complex, UniProt P38953 1-406; P25301 1-460)
chain 1: T1 sequence 1
chain 2: T1 sequence 2
